Laboratory results reported in the supplement of paper PMC6078165.

System: BT20
Assay: relative JC-1 red fluorescence (viability) vs pre-drug, coculture with fibroblast (fraction); higher = more viable cancer cells
Protocol: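 JC-1 labelled TNBC cells cocultured 1:1 (1,500 cells each) with CellTrace Violet stained primary or stromal fibroblasts in 384-well plates in FluoroBrite medium, treated with one of 42 anticancer drugs at 0.1, 1, 10 or 100 uM. JC-1 red fluorescence (mitochondrial integrity in cancer cells only) was read by plate reader every 8 h for 72 h. Values are normalised to each well's pre-drug value. The stock of one drug was tenfold lower, so its dose labels may be too high.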

O=C1c2c(O)ccc(O)c2C(=O)c2c(NCCNCCO)ccc(NCCNCCO)c21 [Mitoxantrone]
relative JC-1 red fluorescence
Details | 8 h | 16 h | 24 h | 32 h | 40 h | 48 h | 56 h | 64 h | 72 h
1 µM, coculture fibroblast: C12385 | – | – | – | – | – | 0.482 | 0.471 | 0.461 | 0.449
1 µM, coculture fibroblast: H6013 | – | – | – | – | – | 0.659 | 0.6622 | 0.63 | 0.602
1 µM, coculture fibroblast: H6019 | – | – | – | – | – | 0.443 | 0.441 | 0.444 | 0.439
1 µM, coculture fibroblast: H6076 | – | – | – | – | – | 0.854 | 0.821 | 0.796 | 0.757
1 µM, coculture fibroblast: H6231 | – | – | – | – | – | 0.732 | 0.71 | 0.676 | 0.634
1 µM, coculture fibroblast: HADF | – | – | – | – | – | 0.697 | 0.693 | 0.669 | 0.622
1 µM, coculture fibroblast: HCFa | – | – | – | – | – | 0.698 | 0.723 | 0.704 | 0.673
1 µM, coculture fibroblast: HCPF | – | – | – | – | – | 0.785 | 0.754 | 0.734 | 0.688
1 µM, coculture fibroblast: HHSteC | – | – | – | – | 0.7688 | 0.7374 | 0.737 | 0.7189 | 0.671
1 µM, coculture fibroblast: HMF | – | – | – | – | 0.722 | 0.681 | 0.648 | 0.614 | 0.576
1 µM, coculture fibroblast: HPFa | – | – | – | – | 0.837 | 0.84 | 0.761 | 0.853 | 0.842
1 µM, coculture fibroblast: HUF | – | – | – | – | 0.5276 | 0.507 | 0.5 | 0.4923 | 0.4837
1 µM, coculture fibroblast: Hs5 | – | – | – | – | 0.811 | 0.778 | 0.754 | 0.725 | 0.691
1 µM, coculture fibroblast: Hs27A | – | – | – | – | 0.8486 | 0.788 | 0.883 | 0.767 | 0.731
1 µM, coculture fibroblast: Hs343T | – | – | – | – | 0.678 | 0.632 | 0.616 | 0.59 | 0.56
1 µM, coculture fibroblast: WS1 | – | – | – | – | 0.3938 | 0.38 | 0.363 | 0.346 | 0.334
10 µM, coculture fibroblast: C12385 | 0.288 | 0.402 | 0.468 | 0.47 | 0.567 | 0.518 | 0.463 | 0.405 | 0.336
10 µM, coculture fibroblast: H6013 | 0.793 | 0.788 | 0.858 | 0.787 | 0.695 | 0.634 | 0.683 | 0.633 | 0.517
10 µM, coculture fibroblast: H6019 | 0.363 | 0.614 | 0.724 | 0.701 | 0.615 | 0.587 | 0.532 | 0.472 | 0.415
10 µM, coculture fibroblast: H6076 | 0.785 | 0.839 | 0.894 | 0.817 | 0.866 | 0.795 | 0.8297 | 0.752 | 0.582
10 µM, coculture fibroblast: H6231 | 0.933 | 0.843 | 0.915 | 0.866 | 0.9858 | 0.797 | 0.673 | 0.537 | 0.409
10 µM, coculture fibroblast: HADF | 0.775 | 0.902 | 0.776 | 0.848 | 0.804 | 0.893 | 0.877 | 0.749 | 0.771
10 µM, coculture fibroblast: HCFa | 0.664 | 0.8565 | 0.789 | 0.762 | 0.892 | 0.83 | 0.754 | 0.697 | 0.675
10 µM, coculture fibroblast: HCPF | 0.7599 | 0.968 | 0.828 | 0.874 | 0.884 | 0.84 | 0.752 | 0.639 | 0.492
10 µM, coculture fibroblast: HHSteC | 0.775 | 0.841 | 0.916 | 0.813 | 0.737 | 0.691 | 0.741 | 0.645 | 0.523
10 µM, coculture fibroblast: HMF | 0.772 | 0.858 | 0.83 | 0.89 | 0.835 | 0.795 | 0.923 | 0.722 | 0.5979
10 µM, coculture fibroblast: HPFa | 0.759 | 0.715 | 0.764 | 0.747 | 0.737 | 0.684 | 0.655 | 0.616 | 0.499
10 µM, coculture fibroblast: HUF | 0.461 | 0.543 | 0.608 | 0.573 | 0.54 | 0.504 | 0.49 | 0.444 | 0.405
10 µM, coculture fibroblast: Hs5 | 0.9341 | 0.746 | 0.7014 | 0.766 | 0.779 | 0.746 | 0.869 | 0.786 | 0.637
10 µM, coculture fibroblast: Hs27A | 0.882 | 0.703 | 0.878 | 0.912 | 0.867 | 0.754 | 0.878 | 0.816 | 0.862
10 µM, coculture fibroblast: Hs343T | 0.691 | 0.893 | 0.752 | 0.793 | 0.89 | 0.978 | 0.809 | 0.695 | 0.547
10 µM, coculture fibroblast: WS1 | 0.304 | 0.392 | 0.532 | 0.489 | 0.381 | 0.33 | 0.273 | 0.2 | 0.147

The reference is the same well before dosing, and untreated signal decays as well.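 Fibroblast labels denote human fibroblasts, mainly primary ones from uterus (C12385, HUF), lung (H6013), bone (Hs27A), adrenal (HADF) and skin (WS1), plus mammary HMF and breast cancer-associated Hs343T. Cancer cells are basal-like or mesenchymal-like triple-negative breast cancer lines. A hit is a response shift exceeding 3x replicate standard deviation. The tissue of the other fibroblasts is not given here.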
